Data as given in PubChem BioAssay AID1224828 (NIAID, 2016)

Assay: 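Find genes required for NF-kappaB p65 moving into the nucleus after LPS in mouse macrophages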 (primary screen)
Cells: mouse RAW264.7 G9 macrophage reporter cells (GFP-p65, Tnf promoter-mCherry)
Reagent: siRNA pool against mouse genes, 100 nM
Timing: 2 days siRNA transfection, then 40 min LPS before fixation
Treatment: LPS (Salmonella minnesota R595) at 10 ng/ml
Measurement: 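Imaged p65 nuclear translocation ratio, normalised to the plate median, converted to robust z-scores and averaged across two replicates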
Reading the numbers: p65 translocation robust z-score: higher = more nuclear NF-kappaB p65 after LPS than the plate median; nuclear/cytoplasmic p65 ratio: higher = more nuclear NF-kappaB p65
Hit rule: 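Active if robust z is above 3.3 (negative regulators) or below -1.56, the Tlr4 control median (positive regulators); activity score 50 or more; control wells not called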
Meaning of the calls: active = hit (p65 shift raised or lowered); inactive = no clear change
The deposit covers about 17,000 reagents; shown is a random part of them. 762 of all reagents (4.5%) count as active. 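Active calls include both raised and lowered p65 entry, mostly lowered; wells with fewer than 50 cells lack a z-score.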 The raw values are shown without normalisation. The numbers tell different reagents against one gene apart.

target	pool no.	p65 translocation robust z-score	nuclear/cytoplasmic p65 ratio, rep 1	nuclear/cytoplasmic p65 ratio, rep 2	low cell count flag	outcome
Snrpb (GeneID 20638)	1		1.52	1.3	fewer than 50 cells per well; well left out of scoring	inactive
Trpv2 (GeneID 22368)	1	-0.2	1.45	1.5	enough cells to score	inactive
Prpf4b (GeneID 19134)	1	0.21	1.65	1.46	enough cells to score	inactive
Muc15 (GeneID 269328)	1	-0.39	1.5	1.51	enough cells to score	inactive
Cdk10 (GeneID 234854)	1	-0.05	1.64	1.41	enough cells to score	inactive
Csn2 (GeneID 12991)	1	-0.41	1.46	1.78	enough cells to score	inactive
A130014H13Rik (GeneID 319630)	1	0.2	1.44	1.52	enough cells to score	inactive
Rnase9 (GeneID 328401)	1	0.37	1.48	1.25	enough cells to score	inactive
Atp5if1 (GeneID 11983)	1	1.57	1.81	1.76	enough cells to score	inactive
Ebp (GeneID 13595)	1	2.15	1.83	1.58	enough cells to score	inactive
Vmn2r37 (GeneID 22305)	1	-0.98	1.16	1.2	enough cells to score	inactive
Hyal1 (GeneID 15586)	1	-0.77	1.36	1.25	enough cells to score	inactive
Kdm5a (GeneID 214899)	1	-0.65	1.39	1.29	enough cells to score	inactive
Sf3b4 (GeneID 107701)	1		1.16	1.17	fewer than 50 cells per well; well left out of scoring	inactive
Or6c2b (GeneID 257667)	1		1.35	1.12	fewer than 50 cells per well; well left out of scoring	inactive
Nlrc4 (GeneID 268973)	1	-0.41	1.59	1.52	enough cells to score	inactive
Creb3l3 (GeneID 208677)	1	0.79	1.52	2.1	enough cells to score	inactive
Cyrib (GeneID 223601)	1	0.65	1.55	1.62	enough cells to score	inactive
Tma7 (GeneID 66167)	1		1.23	1.6	fewer than 50 cells per well; well left out of scoring	inactive
Timm13 (GeneID 30055)	1		1.48	1.2	fewer than 50 cells per well; well left out of scoring	inactive
Cops6 (GeneID 26893)	1	0.17	1.57	1.84	enough cells to score	inactive
Or2ag19 (GeneID 258589)	1	0.66	1.53	1.24	enough cells to score	inactive
Trmt44 (GeneID 78890)	1		1.48	1.42	fewer than 50 cells per well; well left out of scoring	inactive
Foxd2 (GeneID 17301)	1	-1.68	1.25	1.12	enough cells to score	active
Hbb-bh1 (GeneID 15132)	1	0.05	1.62	1.58	enough cells to score	inactive
Sts (GeneID 20905)	1	-1.59	1.15	1.1	enough cells to score	active
Clec2e (GeneID 232409)	1	-0.05	1.62	1.73	enough cells to score	inactive
Klf16 (GeneID 118445)	1	-1.96	1.14	1.13	enough cells to score	active
Suds3 (GeneID 71954)	1		1.46	1.13	fewer than 50 cells per well; well left out of scoring	inactive
Blm (GeneID 12144)	1	-0.04	1.65	1.57	enough cells to score	inactive
Heatr5a (GeneID 320487)	1	-1.79	1.25	1.35	enough cells to score	active
Fam187b (GeneID 76415)	1	2.43	1.45	2	enough cells to score	inactive
Atp6v1h (GeneID 108664)	1	-0.25	1.56	1.59	enough cells to score	inactive
Pdcd7 (GeneID 50996)	1		1.34	1.23	fewer than 50 cells per well; well left out of scoring	inactive
Cyp2c40 (GeneID 13099)	1	0.63	1.52	2.05	enough cells to score	inactive
Tnfrsf14 (GeneID 230979)	1		1.43	1.5	fewer than 50 cells per well; well left out of scoring	inactive
Gprin3 (GeneID 243385)	1	1.95	1.83	2.16	enough cells to score	inactive
Emx2 (GeneID 13797)	1	0.98	1.57	1.52	enough cells to score	inactive
Nrtn (GeneID 18188)	1	-0.82	1.34	1.31	enough cells to score	inactive
Ivns1abp (GeneID 117198)	1	-1.09	1.27	1.29	enough cells to score	inactive
Lce3c (GeneID 94060)	1	-2.15	1.14	0.985	enough cells to score	active
Or4a79 (GeneID 404331)	1	1.07	1.75	1.58	enough cells to score	inactive
Slc25a1 (GeneID 13358)	1	0.35	1.64	1.49	enough cells to score	inactive
Tst (GeneID 22117)	1	-0.76	1.46	1.35	enough cells to score	inactive
Prl3d1 (GeneID 18775)	1	-0.8	1.32	1.8	enough cells to score	inactive
Med20 (GeneID 56771)	1	-0.01	1.42	1.2	enough cells to score	inactive
Lrrc75a (GeneID 192976)	1	-0.09	1.54	1.39	enough cells to score	inactive
Ddx18 (GeneID 66942)	1	-0.15	1.43	1.39	enough cells to score	inactive
Clxn (GeneID 66793)	1		1.12	1.33	fewer than 50 cells per well; well left out of scoring	inactive
Zc3h11a (GeneID 70579)	1		1.13	1.13	fewer than 50 cells per well; well left out of scoring	inactive
Or8b12c (GeneID 258883)	1	-0.48	1.38	1.25	enough cells to score	inactive
Sufu (GeneID 24069)	1		1.43	1.4	fewer than 50 cells per well; well left out of scoring	inactive
Sybu (GeneID 319613)	1		1.04	1.09	fewer than 50 cells per well; well left out of scoring	inactive
Sybu (GeneID 319613)	2	-0.64	1.4	1.32	enough cells to score	inactive
Pank2 (GeneID 74450)	1	-0.16	1.47	1.35	enough cells to score	inactive
Plcb3 (GeneID 18797)	1	0.49	1.53	1.5	enough cells to score	inactive
Or4z4 (GeneID 258674)	1	0.14	1.59	1.48	enough cells to score	inactive
Fbxl3 (GeneID 50789)	1	-1.08	1.29	1.26	enough cells to score	inactive
Amy1 (GeneID 11722)	1	-1.35	1.38	1.5	enough cells to score	inactive

Called active, among the entries above:
target	pool no.	p65 translocation robust z-score	nuclear/cytoplasmic p65 ratio, rep 1	nuclear/cytoplasmic p65 ratio, rep 2	low cell count flag	outcome
Foxd2 (GeneID 17301)	1	-1.68	1.25	1.12	enough cells to score	active
Sts (GeneID 20905)	1	-1.59	1.15	1.1	enough cells to score	active
Klf16 (GeneID 118445)	1	-1.96	1.14	1.13	enough cells to score	active
Heatr5a (GeneID 320487)	1	-1.79	1.25	1.35	enough cells to score	active
Lce3c (GeneID 94060)	1	-2.15	1.14	0.985	enough cells to score	active
